According to patent publication US20240324654A1, “AEROSOLIZABLE MATERIAL” (Nicoventures Trading Limited, priority 2019, published 2024):

Assay: Solubility of cannabidiol isolate in glycerol / propylene glycol / water solutions
Format: physicochemical
Conditions: Isolate 10 mg/mL, Glycerol 36 w/w

For C=C(C)[C@@H]1CCC(C)=C[C@H]1c1c(O)cc(CCCCC)cc1O [Isolate, cannabidiol], which Soluble (PG 52.09 w/w, Water 11 w/w) is on record?
The Soluble was “YES”.

And the Soluble (PG 53.09 w/w, Water 10 w/w)?
The Soluble was “YES”.
